Test results reported in paper PMC3795776, “Alpha-Helical Destabilization of the Bcl-2-BH4-Domain Peptide Abolishes Its Ability to Inhibit the IP3 Receptor” (PLoS ONE, 2013).
No constants are given. Whether binding was seen depends on the method and setting.

Chains of the proteins cited; added tags and fusions are not shown. Residues count along the entry.
UniProt P11881, residues 923-1581: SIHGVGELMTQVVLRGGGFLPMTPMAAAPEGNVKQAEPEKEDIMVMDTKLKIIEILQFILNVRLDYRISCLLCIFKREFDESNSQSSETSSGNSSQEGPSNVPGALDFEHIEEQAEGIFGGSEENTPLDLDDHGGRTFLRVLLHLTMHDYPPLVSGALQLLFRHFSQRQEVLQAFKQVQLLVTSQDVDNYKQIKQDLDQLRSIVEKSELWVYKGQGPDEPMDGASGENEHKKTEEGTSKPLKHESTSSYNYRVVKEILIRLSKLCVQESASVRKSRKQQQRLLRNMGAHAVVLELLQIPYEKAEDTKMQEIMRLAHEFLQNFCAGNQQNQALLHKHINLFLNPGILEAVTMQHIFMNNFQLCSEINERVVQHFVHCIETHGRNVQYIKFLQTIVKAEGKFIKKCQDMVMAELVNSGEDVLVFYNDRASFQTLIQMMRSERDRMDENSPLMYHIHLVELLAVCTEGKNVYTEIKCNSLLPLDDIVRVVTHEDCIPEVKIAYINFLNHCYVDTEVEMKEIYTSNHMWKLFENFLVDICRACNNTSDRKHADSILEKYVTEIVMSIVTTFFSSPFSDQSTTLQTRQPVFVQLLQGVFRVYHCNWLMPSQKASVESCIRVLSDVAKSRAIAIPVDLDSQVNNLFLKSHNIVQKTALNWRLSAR

Target: GST-Dom3 IP3R1 (GST fused to IP3R1 Domain 3, aa 923-1581) (mouse) (UniProt P11881)
Assay: condition: 30 µg peptide with 30 µg GST-fusion protein; pull-down; 30 µg GST-Dom3 IP3R1 with 30 µg BH4 peptide on glutathione-Sepharose 4B beads, 2 h at 4°C; Interaction Buffer 50 mM Tris-HCl, 300 mM NaCl, 1 mM EDTA, 1% NP-40, 0.5% sodium deoxycholate, 0.5% BSA, pH 7.0; washed 4 times with 150 mM NaCl and no BSA; SDS-PAGE with GelCode blue total protein stain, bands quantified with ImageJ; both purified

binding: no binding
B1: Bcl-2-BH4 IV/GG peptide (peptide)
peptide: RTGYDNREGGMKYIHYKLSQRGYEW
